Sequences of proteins named here, by UniProt entry; tags and fusion partners are left off. A change or cut given only in a name is not applied to a line headed by its entry.
UniProt P41159: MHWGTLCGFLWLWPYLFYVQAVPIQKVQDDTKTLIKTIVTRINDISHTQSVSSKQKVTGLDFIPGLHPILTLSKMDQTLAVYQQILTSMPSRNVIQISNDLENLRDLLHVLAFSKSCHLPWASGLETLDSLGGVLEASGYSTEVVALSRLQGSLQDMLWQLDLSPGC

According to patent US20110288011A1 (priority 2008, published 2011):

Assay: general procedure: Fmoc solid-phase peptide synthesis; Pre-loaded Fmoc-Leu-Wang resin (0.48 mmol/g); Rink amide MBHA resin with Nle (0.40 mmol/g) for ANG-Cys-NH2; HBTU/NMM (TBTU or HCTU for some peptides)
Details: for final HPLC purity / final purity (method not given): HPLC (Waters Acquity, BEH phenyl, 229 nm)
[1] = whole synthesis, scale of the general procedure 100 μmol

Substance | conjugation yield (conjugation step) | final HPLC purity [1] | isolated yield [1] [% yield] | final purity (method not given) [1] | further results
leptin(116-130) (SCHLPWASGLETLDS; C-terminal amide; UniProt P41159 116-130, looked up, fragment) | 79% | – | – | – | –
NT-AN2Cys-NH2 | 65% yield | – | – | – | final HPLC purity (conjugation step): purity HPLC>95%; final purity (method not given) (conjugation step, run 1): purity>95%; final purity (method not given) (conjugation step, run 2): ≧95%; conjugation yield (conjugation step, over 2 steps, run 1): 9% over 2 steps; conjugation yield (conjugation step, over 2 steps, run 2): 54% over 2 steps
MHA-RRPYIL-OH | – | purity HPLC≧95% | 73 | – | –
Ac-KRRPD-YIL-OH | – | purity HPLC≧95% | 82 | ≧95% | –
pGlu-LysNT (8-13) | – | – | – | ≧95% | –
